# The list shows a part of the results. Entries with a potency or affinity are not part of this list.
# Tested on: Pseudomonas aeruginosa
# Details: Concentration 32 ug.mL-1; ASSAY_TEST Inhibition of Bacterial Growth; detection method Absorption (OD600); MEDIA CAMHB; plate type 384well; NBS; CORNING #3640; time 18 hr
row,SMILES,Inhibition
1,COc1cccc(C(=O)Nc2cc(C(=O)Nc3cc(C(=O)Nc4cn(CCCN(C)C)cn4)n(C)c3)n(C)c2)c1.O=C(O)C(F)(F)F,-5.62%
2,CC(C)CCc1sc(NC(=O)c2cc(NC(=O)c3ccc(/C=C/c4cc5ccccc5nc4Cl)cc3)cn2C)nc1C(=O)NCCN1CCOCC1.O=C(O)C(F)(F)F,-35.38%
3,CN(C)CCCNC(=O)c1cc(NC(=O)c2cc(NC(=O)c3cc(NC(=N)c4ccccc4)cn3C)cn2C)cn1C.O=C(O)C(F)(F)F.O=C(O)C(F)(F)F,-17.58%
4,Cc1ccc(S(=O)(=O)NCCc2cn(Cc3cnc(C)nc3N)nn2)cc1,1.35%
5,CCOC(=O)c1cc(NC(=O)c2cc(NC(=O)c3nc(N)sc3CCC(C)C)cn2C)cn1C,38.08%
6,Cc1ncc(Cn2cc(CCO)nn2)c(N)n1,-0.49%
7,Cn1cc(NC(=O)c2cc(NC(=O)c3cc(NC(=O)c4ccc(Cl)cc4Cl)cn3C)cn2C)cc1C(=O)NCCN1CCOCC1.O=C(O)C(F)(F)F,15.38%
8,CN(C)CCCNC(=O)c1cc(NC(=O)c2cc(NC(=O)c3cc(NC(=N)N)cn3C)cn2C)cn1C.O=C(O)C(F)(F)F.O=C(O)C(F)(F)F,12.25%
9,COC(=O)CCC(=O)Nc1cc(C(=O)Nc2cc(C(=O)NCCC(=N)N)n(C)c2)n(C)c1.O=C(O)C(F)(F)F,-3.66%
10,CC(C)CCc1sc(N)nc1C(=O)Nc1cc(C(=O)Nc2cc(C(=O)NCCN3CCOCC3)n(C)c2)n(C)c1.O=C(O)C(F)(F)F,12.69%
11,CC(C)c1sc(N)nc1C(=O)Nc1cc(C(=O)NCCN2CCOCC2)n(C)c1.O=C(O)C(F)(F)F,17.13%
12,Cc1ncc(Cn2cc(CCCCO)nn2)c(N)n1,2.34%
13,COc1cccc(C(=N)Nc2cc(C(=O)Nc3cc(C(=O)NCCC(=N)N)n(C)c3)n(C)c2)c1.O=C(O)C(F)(F)F.O=C(O)C(F)(F)F,16.48%
14,CCOC(=O)c1cc(NC(=O)c2cc(NC(=O)c3sc(N)nc3C(F)(F)F)cn2C)cn1C,24.05%
15,Cn1cc(NC(=O)c2cc(NC(=O)c3sc(N)nc3C(F)(F)F)cn2C)cc1C(=O)NCCC(=N)N.O=C(O)C(F)(F)F,-23.42%
16,Cc1ncc(Cn2cc(CO)nn2)c(N)n1,-32.15%
17,CC(=O)Nc1cc(C(=O)Nc2cc(C(=O)Nc3cc(C(=O)NCCCN(C)C)n(CCC(C)C)c3)n(C)c2)n(C)c1.O=C(O)C(F)(F)F,-10.52%
18,CN(C)CCCNC(=O)c1cc(NC(=O)c2cc(NC(=O)c3ccc(C(=O)O)cc3)cn2C)cn1C.O=C(O)C(F)(F)F,6.54%
19,CC(C)CCc1sc(NC(=O)c2cc(NC(=O)c3cc(NC(=O)c4ccc(C(=O)O)cc4)cn3C)cn2C)nc1C(=O)NCCCN(C)C.O=C(O)C(F)(F)F,7.07%
20,CC(C)n1cc(NC(=O)c2cc(NC(=O)c3cc(NC=O)cn3C(C)C)cn2C)cc1C(=O)NCCCN(C)C.O=C(O)C(F)(F)F,4.09%

row,SMILES,Inhibition
1,Cc1ncc(CNc2ccc(C(F)(F)F)cc2)c(N)n1,-17.37%
2,Cc1ncc(Cn2cc(CCCO)nn2)c(N)n1,-31.15%
3,COc1cccc(C(=N)Nc2cc(C(=O)Nc3cc(C(=O)Nc4cn(CCCN(C)C)cn4)n(C)c3)n(C)c2)c1.O=C(O)C(F)(F)F.O=C(O)C(F)(F)F,5.49%
4,COC(=O)c1ccc(C(=O)Nc2cc(C(=O)Nc3cc(C(=O)NCCC(=N)N)n(C)c3)n(C)c2)cc1.O=C(O)C(F)(F)F,-8.92%
5,COC(=O)c1ccc(C(=O)Nc2cc(C(=O)Nc3cc(C(=O)NCCN4CCOCC4)n(C)c3)n(C)c2)cc1.O=C(O)C(F)(F)F,3.6%
6,CC(C)c1sc(N)nc1C(=O)Nc1cc(C(=O)Nc2cc(C(=O)NCCN3CCOCC3)n(C)c2)n(C)c1.O=C(O)C(F)(F)F,0.36%
7,Cn1cc(NC(=O)c2cc(NC(=O)c3sc(N)nc3C(F)(F)F)cn2C)cc1C(=O)NCCN1CCOCC1.O=C(O)C(F)(F)F,-11.34%
8,COCCOC1CCN(C(=O)c2cc(NC(=O)c3cc(NC(=O)c4ccc(/C=C/c5ccc(OC)cc5)cc4)cn3C)cn2C)CC1.O=S(=O)(O)O,6.82%
9,Cn1cc(NC(=O)c2cc(NC(=O)c3ccc(/C=C/c4cccc(F)c4)cc3)cn2C)cc1C(=O)NCCN1CCOCC1.O=C(O)C(F)(F)F,-3.58%
10,COC(=O)CCC(=O)Nc1cc(C(=O)Nc2cc(C(=O)NCCCN(C)C)n(C)c2)n(C)c1.O=C(O)C(F)(F)F,-41.02%
11,CN(C)CCCNC(=O)c1cc(NC(=O)c2cc(NC(=O)CCC(=O)O)cn2C)cn1C.O=C(O)C(F)(F)F,4.9%
12,Cc1ncc(CNc2ccc(Cl)cc2)c(N)n1,22.29%
13,CC(C)CCc1sc(NC(=O)c2cc(NC(=O)c3ccc(/C=C/c4cc5ccccc5nc4On4nnc5ccccc54)cc3)cn2C)nc1C(=O)NCCN1CCOCC1.O=C(O)C(F)(F)F,-45.98%
14,Cc1ncc(CNc2ccc(F)cc2)c(N)n1,25.33%
15,CC(C)CCc1sc(NC(=O)c2cc(NC(=O)c3cc(NC(=O)CCC(=O)O)cn3C)cn2C)nc1C(=O)NCCCN(C)C.O=C(O)C(F)(F)F,6.91%
16,Cc1ncc(CNc2ccc(C(C)(C)C)cc2)c(N)n1,6.39%
17,CC(=O)Nc1cc(C(=O)Nc2cc(C(=O)Nc3cc(C(=O)NCCCN(C)C)n(C)c3)n(C)c2)n(C)c1.O=C(O)C(F)(F)F,8.95%
18,COc1cccc(C(=N)Nc2cc(C(=O)Nc3cc(C(=O)Nc4cc(C(=O)NCCCN(C)C)n(C)c4)n(C)c3)n(C)c2)c1.O=C(O)C(F)(F)F.O=C(O)C(F)(F)F,16.01%
19,COc1ccc(/C=C(/C(=O)Nc2cc(C(=O)Nc3cc(C(=O)NCCCN(C)C)n(C)c3)n(C)c2)c2ccc(OC)cc2)cc1.O=C(O)C(F)(F)F,10.3%
20,COC(=O)CCC(=O)Nc1cc(C(=O)Nc2cc(C(=O)NCCN3CCOCC3)n(C)c2)n(C)c1.O=C(O)C(F)(F)F,13.77%

row,SMILES,Inhibition
1,CC(=O)N(C(C)=O)c1cc(C(=O)Nc2cc(C(=O)NCCC(=N)N)n(C)c2)n(C)c1.O=C(O)C(F)(F)F,11.03%
2,Cc1ncc(CO)c(N)n1,-5.34%
3,CCOC(=O)c1cc(NC(=O)c2cc(NC(=O)c3nc(N)sc3C(C)C)cn2C)cn1C,31.09%
4,CN(C)CCCNC(=O)c1cc(NC(=O)c2cc(NC(=O)c3cc4ccccc4cn3)cn2C)cn1C.O=C(O)C(F)(F)F,36.27%
5,Cc1ncc(CNc2ccccc2F)c(N)n1,18.14%
6,CC(=N)Nc1cc(C(=O)Nc2cc(C(=O)Nc3cc(C(=O)NCCN4CCOCC4)n(C)c3)n(C)c2)n(C)c1.O=C(O)C(F)(F)F.O=C(O)C(F)(F)F,15.64%
7,CC(C)c1sc(NC(=O)c2cc(NC(=O)c3cc(NC(=O)c4cnc(Cl)c(Cl)c4)cn3C)cn2C)nc1C(=O)NCCCN(C)C.O=C(O)C(F)(F)F,-4.4%
8,CCOC(=O)CCC(NC(=O)c1ccc(NCc2cn(Cc3cnc(C)nc3N)nn2)cc1)C(=O)OCC (centres undefined),-45.33%
9,Cc1ncc(Cn2cc(CCC(=O)O)nn2)c(N)n1.O=C(O)C(F)(F)F,-33.35%
10,Cc1ncc(Cn2cc(CCCN)nn2)c(N)n1.Cl,-39.92%
11,CC(C)CCn1cc(NC(=O)c2cc(NC(=O)c3cc(NC(=N)c4ccccc4)cn3C)cn2C)cc1C(=O)NCCCN(C)C.O=C(O)C(F)(F)F.O=C(O)C(F)(F)F,7.17%
12,COCCOC1CCN(C(=O)c2cc(NC(=O)c3cc(NC(=O)c4ccc(/C=C/c5cnc6ccccc6c5)cc4)cn3C)cn2C)CC1,2.14%
13,COc1ccc(CC(=O)Nc2cc(C(=O)Nc3cc(C(=O)Nc4cn(CCCN(C)C)cn4)n(C)c3)n(C)c2)cc1.O=C(O)C(F)(F)F,1.6%
14,COc1cccc(/C=C/c2ccc(C(=O)Nc3cc(C(=O)Nc4cc(C(=O)NCCN(C)C)n(C)c4)n(C)c3)cc2)c1.O=C(O)C(F)(F)F,3.22%
15,Cn1cc(NC(=O)c2cc(NC(=O)CCC(=O)O)cn2C)cc1C(=O)NCCN1CCOCC1.O=C(O)C(F)(F)F,25.32%
16,Cc1ncc(CNc2cccc(F)c2)c(N)n1,16.91%
17,COC(=O)c1ccc(C(=O)Nc2cc(C(=O)Nc3cc(C(=O)NCCCN(C)C)n(C)c3)n(C)c2)cc1.O=C(O)C(F)(F)F,-1.54%
18,COc1cccc(C(=N)Nc2cc(C(=O)Nc3cc(C(=O)Nc4cc(C(=O)NCCCN5CCOCC5)n(C)c4)n(C)c3)n(C)c2)c1.O=C(O)C(F)(F)F.O=C(O)C(F)(F)F,11.64%
19,Cc1ncc(Cn2cc(CC(N)C(=O)O)nn2)c(N)n1.Cl (centres undefined),-45.82%

# Another view of part of the listing above.
row | SMILES | Inhibition
12 | COCCOC1CCN(C(=O)c2cc(NC(=O)c3cc(NC(=O)c4ccc(/C=C/c5cnc6ccccc6c5)cc4)cn3C)cn2C)CC1 | 2.14%
13 | COc1ccc(CC(=O)Nc2cc(C(=O)Nc3cc(C(=O)Nc4cn(CCCN(C)C)cn4)n(C)c3)n(C)c2)cc1.O=C(O)C(F)(F)F | 1.6%
14 | COc1cccc(/C=C/c2ccc(C(=O)Nc3cc(C(=O)Nc4cc(C(=O)NCCN(C)C)n(C)c4)n(C)c3)cc2)c1.O=C(O)C(F)(F)F | 3.22%
